Experimental data published in article PMC5397071.
No constants are given. Whether binding was seen depends on the method and setting. Binding seen in cells or lysates may run through a third protein. A yes stands for co-enrichment or nearness to the bait. Other partners may have been found.

Target: T1, MEIOC (mouse (endogenous in testis)) (UniProt A2AG06)
T1 sequence: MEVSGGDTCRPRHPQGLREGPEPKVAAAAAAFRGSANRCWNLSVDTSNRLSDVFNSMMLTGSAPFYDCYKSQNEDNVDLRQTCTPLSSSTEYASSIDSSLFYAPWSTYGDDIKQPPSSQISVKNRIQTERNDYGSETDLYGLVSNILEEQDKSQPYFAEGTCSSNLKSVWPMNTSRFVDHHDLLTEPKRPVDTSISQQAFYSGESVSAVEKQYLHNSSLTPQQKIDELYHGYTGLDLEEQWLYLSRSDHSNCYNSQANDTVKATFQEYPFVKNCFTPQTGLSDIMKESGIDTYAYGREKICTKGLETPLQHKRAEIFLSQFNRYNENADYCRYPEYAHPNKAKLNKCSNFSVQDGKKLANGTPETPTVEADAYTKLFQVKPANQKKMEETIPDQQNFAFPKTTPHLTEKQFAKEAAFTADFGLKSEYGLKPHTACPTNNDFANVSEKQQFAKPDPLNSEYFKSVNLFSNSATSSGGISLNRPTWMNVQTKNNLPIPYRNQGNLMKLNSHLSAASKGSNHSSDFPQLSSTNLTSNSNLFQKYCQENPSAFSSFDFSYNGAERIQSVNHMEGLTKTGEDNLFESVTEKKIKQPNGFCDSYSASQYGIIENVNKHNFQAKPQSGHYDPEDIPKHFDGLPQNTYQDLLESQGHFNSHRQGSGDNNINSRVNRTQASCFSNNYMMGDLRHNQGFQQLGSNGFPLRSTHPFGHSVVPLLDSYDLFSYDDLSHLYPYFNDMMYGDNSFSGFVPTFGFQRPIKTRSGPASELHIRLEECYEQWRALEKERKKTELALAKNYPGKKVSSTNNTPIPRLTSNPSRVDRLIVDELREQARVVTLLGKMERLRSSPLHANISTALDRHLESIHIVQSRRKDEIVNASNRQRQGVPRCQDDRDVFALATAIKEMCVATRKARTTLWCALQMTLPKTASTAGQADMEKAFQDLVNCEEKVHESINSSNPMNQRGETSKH
Assay: affinity purification with mass spectrometry; anti-MEIOC antibody crosslinked to Protein G Dynabeads; lysates of P15 mouse testes (wild-type or Meioc-deficient; IgG control); lysis buffer 25mM Tris-HCl pH7.5, 150mM NaCl, 1.5mM MgCl2, 1mM DTT, 0.4% Triton X-100, Benzonase nuclease; TMT quantitative mass spectrometry

B1: YTHDC2 (protein, UniProt B2RR83 1-1445)
chain: MSRPSSVSPRPPAPSGGGTGGGGGGSGGGGGGGGGGPASCGPGGGGRAKGLKDIRIDEEVKIAVNIALERFRYGDQREMEFPSSLTSTERAFIHRLSQSLGLVSKSKGKGANRYLTVKKKDGSETAHAMMTCNLTHNTKHAVRSLIQRFPVTNKERTELLPKTERGNVFAVEAENREMSKTSGRLNNGIPQVPVKRGESEFDSFRQSLPVFEKQEEIVKIIKENKVVLIVGETGSGKTTQIPQFLLDDCFKNGIPCRIFCTQPRRLAAIAVAERVAAERRERIGQTIGYQIRLESRVSPKTLLTFCTNGVLLRTLMAGDSTLSTVTHVIVDEVHERDRFSDFLLTKLRDLLQKHPTLKLILSSAALDVNLFIRYFGSCPVIYIQGRPFEVKEMFLEDILRTTGYTNKEMLKYKKEKQREEKQQTTLTEWYSAQENTFKPESQRQRAVASVSEEYDLLDDGGDAVFSQLTEKDVNCLEPWLIKEMDACLSDIWLHKDVDAFAQVFHLILTENVSVDYRHSETSATALMVAAGRGFTSQVEQLISMGANVHSKASNGWMALDWAKHFGQTEIVDLLESYSASLEFGNLDESSLVQTNGNDLSAEDRELLKAYHHSFDDEKVDLDLIMHLLYNICHSCDAGAILIFLPGYDEIVGLRDRILFDDKRFADNTHRYQVFMLHSNMQTSDQKKVLKNPPAGVRKIILSTNIAETSITVNDVVFVIDSGKVKEKSFDALNFVTMLKMVWISKASAIQRKGRAGRCRPGICFRLFSRLRFQNMLEFQTPELLRMPLQELCLHTKLLAPVNCTIADFLMKAPEPPPALIVRNAVQMLKTIDAMDAWEDLTELGYHLADLPVEPHLGKMVLCAVVLKCLDPILTIACTLAYRDPFVLPTQASQKRAAMLCRKRFTAGTFSDHMALLRAFQAWQKARSDGWERAFCEKNFLSQATMEIIIGMRTQLLGQLRASGFVRARGGGDIRDVNTNSENWAVVKAALVAGMYPNLVHVDRENVILTGPKEKKVRFHPTSVLSQPQYKKIPPANGQAAAIQALPTDWLIYDEMTRAHRIANIRCCSAVTPVTVLVFCGPARLASNALQEPSSFRADGIPNDSSDSEMEDRTTANLAALKLDEWLNFKLEPEAASLLLQLRQKWHSLFLRRMRAPSKPWSQVDEATIRAIIAVLSTEEQSAGLQQPSGIGQRPRPMSSEELPLASSWRSNNSRKSTADTEFADGSTTGERVLMKSPSPALHPPQKYKDRGILHPKRSTDDRSDQSSVKSTDSSSYPSPCASPSPPSSGKGSKSPSPRPNMPIRYFIMKSSNLRNLEISQQKGIWSTTPSNERKLNRAFWESSMVYLVFSVQGSGHFQGFSRMSSEIGREKSQDWGSAGLGGVFKVEWIRKESLPFQFAHHLLNPWNDNKKVQISRDGQELEPQVGEQLLQLWERLPLGEKTTSD
**Q.** How did the binding turn out when B1 was run?
**A.** The binding was “binds”.
